± gives the standard deviation of the averaged measurements. Most values lie at the floor of the assay. Slopes are relative: functional sequences can read slightly below zero.
tested on: Saccharomyces cerevisiae PS128 hsf1 delta, HSF1(1-493) fusion; assay: growth estimate (transactivation domain function in HSF1 fusion, heat-shock survival) (a.u. (slope of normalised read count over time)); higher = stronger growth at 37°C, i.e. more transactivation activity; details: library: random library
Method: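 Random 60-nt DNA library encoding peptides of up to 20 aa, fused to the C-terminus of yeast HSF1 residues 1-493 (C-terminal TAD deleted) and expressed from the native HSF1 promoter on a CEN plasmid in hsf1-deleted S. cerevisiae PS128. Cells were selected at 37°C on -trp 5-FOA plates for 0, 2, 4, 6 and 8 days and amplicons were sequenced. Growth estimate is the slope of a robust linear fit of total-sum-normalised read counts (normalised to the first time point) over time, using at least 2 replicates. Sequences are classed functional (TAD activity) above a threshold of -0.13, set from stop-codon control sequences.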

Substance	growth estimate
GLWIVQSDVRRVTSHVSNEC	< -0.25
RVILAGTTCVRLQILH	< -0.25
TLYSLWYKTRFGLVGTK	< -0.25
SPCWGGGDHYRYAPERLRKQ	< -0.25
FILILNSGGLWQCSVAVIFW	< -0.25
TYRVAGLILPSATRPIV	< -0.25
VIPG	< -0.25
HQRYCLVPSANYYVRVTCTY	< -0.25
HLFIIAYLYLALERRPHSLT	< -0.25
PWSDARHPSAAGE	< -0.25
AGCRMA	< -0.25
NDLPANRWDIHQISTVCPLG	< -0.25
VAFSLWGHRSGVLGTVAS	-0.25
LGVSLRLLSAGWVHCLANRP	< -0.25
GSLG	< -0.25
VGAVVVQQSVKTQLDAENHK	< -0.25
TGKASEQLGDGDYIWPKSGV	< -0.25
AHC	< -0.25
LDL	< -0.25
WAWYACFFLTEG	< -0.25
SSIDRVFILQIVILRGHIDL	< -0.25
KIFPYPSHVSDLICFGSVSP	-0.242
RNPSGARAVGGWVEYRLTLW	< -0.25
VQRRGARYSTLSNGGNGVAG	< -0.25

Quoted from the listing.
In growth estimate, GLWIVQSDVRRVTSHVSNEC shows < -0.25
In growth estimate, VIPG shows < -0.25
In growth estimate, RVILAGTTCVRLQILH shows < -0.25
In growth estimate, WAWYACFFLTEG shows < -0.25
In growth estimate, GSLG shows < -0.25
In growth estimate, AHC shows < -0.25

Next records.

Substance	growth estimate
IGMLVARAAASGTQTGSGSE	< -0.25
GNI	< -0.25
SGTGSSVRKRIVSFSS	< -0.25
LIARQGKLLNLTG	< -0.25
EERIDKAMLGNRLCSWPRGD	< -0.25
SGVNN	< -0.25
KKRIETGTTVVFWQLIVGPW	-0.229
SMPWIGE	< -0.25
NGEPLEVTNAPYTWGLSRRV	< -0.25
DRLFRDAYQG	< -0.25
VYRTSRPKGSKNSQRQPV	< -0.25
SRSLGFSESCLCNHHKFWPS	< -0.25
PPVCSGHVQDVREMLCSLTD	< -0.25
FGRCLRDRAVPPHRIVQTIG	< -0.25
LGKRP	< -0.25
LHLRILSAWDYSRLLRSEVP	< -0.25
SVDPLRPYNTQC	< -0.25
VCLNMNHSDKYGGKVTDRLH	< -0.25
TEGGQHSRWNVRKLPNRKDA	< -0.25
SVRSIEVRRPRPCVLEMRGQ	< -0.25
SKYPWPGW	< -0.25
DGRIIKHRPDGHGTYPLHNA	< -0.25
RKSQLGSQS	< -0.25
RWGLCVSGERGGTSH	< -0.25

Substance	growth estimate
WIGTNLGGIGW	-0.0201
ASHGTYSSGI	-0.229
ALVCWPMAMTLDAFFLS	< -0.25
YVNTH	< -0.25
GSTRSLPACVILAKRSLWGL	< -0.25
FQYQVCSPYTRALGPYAEPG	< -0.25
RGK	< -0.25
GGGNDRARLIQGSSFGVRCY	-0.245
LIPASRSKAVGRAREPGHMC	< -0.25
ASGA	< -0.25
MEI	< -0.25
SPTSFVKDSIELTSYRKAAP	< -0.25
CVLT	< -0.25
SGGSRWKAVEGELKLIPMRR	< -0.25
AANSFPIHVRSRHKAVGAIA	< -0.25
GPRERAGIVASIFMVRW	-0.231
CASDTGHCRYETSYST	< -0.25
ALDGMPVYKPLKARTSAR	< -0.25
VRILAPNFRVALSWRHQYFA	< -0.25
HKKVEWLGYGGTRNLSVISR	< -0.25
YIRRVY	< -0.25
CHVDGEGHRTCCIANRKHVR	< -0.25
WRCAHGYHWCAGCKSPFTGR	< -0.25
CRLNVDLGRALKATCLGDYC	< -0.25

Substance	growth estimate
IRD	< -0.25
LRHPGWSDAALGPIGVSDFT	< -0.25
DLSRLNIRLGILPTAGTDI	< -0.25
IFFSTAIAKSKVQRSIK	< -0.25
KEEGDRLVGLLRRLAPTWRT	< -0.25
YTQLRQSTYTRRHILGLILP	< -0.25
IEIFK	< -0.25
SLWTRSLVLGVREVRELSNK	< -0.25
ALGFVRTATVITGESCHSLG	< -0.25
TRSTFQLFYPALPELRCC	< -0.25
RSSKDSLLPTYCEVHVDHRS	< -0.25
RVHTIG	< -0.25
RWNCCVMVSIIY	< -0.25
LFVGKVGLNIVVSTGPL	< -0.25
KTGDFRQVMETQVV	< -0.25
HPNSHHCLVS	< -0.25
AWGREDRRSYGTRPIC	< -0.25
LCPDGTVLHNIAPTLEGRPA	< -0.25
GSPGTLGLDRKRTDPLRTIC	< -0.25
LILRNG	< -0.25
LRDRVQGSGPNNHEACAW	< -0.25
GRVL	-0.248 ± 0.003
RQALWSVEVTC	< -0.25
RLLS	< -0.25

Substance	growth estimate
LVIVPVRVLYRQTVSVIRLM	< -0.25
CFIYGRLIQDGKVLFFLRYY	< -0.25
AEVQRPTCGPRRHNERWCCA	< -0.25
TRAVICPPYFHGGSRRTQVF	< -0.25
RDNIG	< -0.25
VRAWSRQPKGRRQSRFARRK	< -0.25
DNRLFTGAVAGAGGNASFT	< -0.25
SVF	< -0.25
CGF	< -0.25
RTRVERSLRRLRVSGSHRIP	< -0.25
RTNTISPGSRRRISYIQYPM	< -0.25
LYATKTKQ	< -0.25
LEYCRPLGMMGSRLWALRGQ	< -0.25
STRF	< -0.25
CDLRDLTSVPRRRCVASKIL	< -0.25
ASPFVC	< -0.25
TIESSVRPSASDAITANSTS	< -0.25
PVSPSQK	< -0.25
LASRTVQF	< -0.25
SGWYLTERRGLV	< -0.25
INSSVRRNVLRTRCTDRRCV	< -0.25
KDCTGRHSEKKKLTVAKDAW	< -0.25
YELCRLFARNSDRHECHWRF	< -0.25
VSWPVHGVSGR	< -0.25

Substance	growth estimate
VTDSRLGSRVALAYRDVCAG	< -0.25
AQLLVFVADAVLM	< -0.25
CPRITLHPSNGSAVNNPPAQ	< -0.25
RGLCV	-0.203
ASSKRGQSQSGLLLQRRPFT	< -0.25
CRQNALDL	< -0.25
MSNGCRLPSIRYVSPTWSTI	< -0.25
TVGKPMSSETSGQSWVHNAS	< -0.25
SQT	< -0.25
PVSVPM	< -0.25
YKVNESCNSELARGDHWLTD	< -0.25
LAEGLRRALLTTGSRSDLAC	< -0.25
SEV	-0.219
PGLHNGETFRSWL	< -0.25
RIPSVVTMERSGFQKV	< -0.25
RDRCGSRQAMLSSYWGQHVP	< -0.25
IGGEPSIQSSKPT	< -0.25
STNAATVMPTADQVCIMTRA	< -0.25
IIRVLQLRKGLTTGLGEFTT	< -0.25
PLQRCQDLCLFCRELRLRAD	< -0.25
WLCEGSCASCITRANLARVP	< -0.25
CMHIRDLLAASPSGLLNALC	< -0.25
IRFPSSVGDSGHGWSIQYLL	< -0.25

From the supplement of paper PMC5949888
